Test results from the supplement of paper PMC10849652.
Some of the results follow.

By UniProt entry, the sequences of proteins in these tests, tags left out. Where a name states a change or a piece, a line headed by the entry shows the natural chain unless it says otherwise.
UniProt P08579, whole entry, looked up: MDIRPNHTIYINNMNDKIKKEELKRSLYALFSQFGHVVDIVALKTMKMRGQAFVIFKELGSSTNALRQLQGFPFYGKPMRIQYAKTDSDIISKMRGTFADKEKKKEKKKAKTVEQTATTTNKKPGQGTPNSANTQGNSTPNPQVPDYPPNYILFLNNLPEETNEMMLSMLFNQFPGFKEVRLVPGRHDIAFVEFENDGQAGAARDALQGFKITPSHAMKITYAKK
UniProt Q16637, whole entry, looked up: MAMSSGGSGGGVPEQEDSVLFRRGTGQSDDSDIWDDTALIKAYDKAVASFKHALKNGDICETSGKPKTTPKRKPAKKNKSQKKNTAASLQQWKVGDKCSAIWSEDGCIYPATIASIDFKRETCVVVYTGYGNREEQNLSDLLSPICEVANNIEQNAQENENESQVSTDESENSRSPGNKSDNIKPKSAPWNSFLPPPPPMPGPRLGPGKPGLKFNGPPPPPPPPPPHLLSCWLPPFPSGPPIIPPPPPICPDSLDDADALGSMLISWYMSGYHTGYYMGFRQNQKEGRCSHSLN
UniProt O60493, whole entry, looked up: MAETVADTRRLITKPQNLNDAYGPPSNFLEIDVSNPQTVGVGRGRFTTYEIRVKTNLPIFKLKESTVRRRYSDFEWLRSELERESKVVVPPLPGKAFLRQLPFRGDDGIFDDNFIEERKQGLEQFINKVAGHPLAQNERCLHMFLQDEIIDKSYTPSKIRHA
UniProt Q96KF7: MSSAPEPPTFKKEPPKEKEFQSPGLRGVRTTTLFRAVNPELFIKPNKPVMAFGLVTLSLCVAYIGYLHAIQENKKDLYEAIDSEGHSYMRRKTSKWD
UniProt P00441, whole entry, looked up: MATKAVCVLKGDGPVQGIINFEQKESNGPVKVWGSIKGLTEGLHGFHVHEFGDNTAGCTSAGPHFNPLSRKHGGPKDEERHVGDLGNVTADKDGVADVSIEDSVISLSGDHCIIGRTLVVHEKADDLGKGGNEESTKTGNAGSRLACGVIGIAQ
UniProt P09661: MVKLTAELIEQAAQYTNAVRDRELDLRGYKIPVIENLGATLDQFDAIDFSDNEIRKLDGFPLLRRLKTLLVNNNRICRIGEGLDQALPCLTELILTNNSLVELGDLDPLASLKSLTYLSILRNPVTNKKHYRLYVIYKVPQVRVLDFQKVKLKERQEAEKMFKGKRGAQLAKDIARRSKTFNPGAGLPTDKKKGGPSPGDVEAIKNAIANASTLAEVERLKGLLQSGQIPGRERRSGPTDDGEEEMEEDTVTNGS
UniProt Q9Y5W9: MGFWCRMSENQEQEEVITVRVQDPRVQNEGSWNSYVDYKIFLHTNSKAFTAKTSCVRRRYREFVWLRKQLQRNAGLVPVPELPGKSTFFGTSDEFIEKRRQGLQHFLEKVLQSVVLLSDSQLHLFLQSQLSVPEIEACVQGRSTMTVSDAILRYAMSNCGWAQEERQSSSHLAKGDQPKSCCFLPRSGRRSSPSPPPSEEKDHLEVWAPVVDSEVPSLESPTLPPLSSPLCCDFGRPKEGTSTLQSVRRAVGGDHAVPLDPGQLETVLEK
UniProt O76070, whole entry, looked up: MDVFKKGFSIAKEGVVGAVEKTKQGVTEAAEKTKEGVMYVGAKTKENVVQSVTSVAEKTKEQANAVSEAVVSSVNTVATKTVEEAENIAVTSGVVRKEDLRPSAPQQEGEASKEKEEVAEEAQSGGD
UniProt Q13425: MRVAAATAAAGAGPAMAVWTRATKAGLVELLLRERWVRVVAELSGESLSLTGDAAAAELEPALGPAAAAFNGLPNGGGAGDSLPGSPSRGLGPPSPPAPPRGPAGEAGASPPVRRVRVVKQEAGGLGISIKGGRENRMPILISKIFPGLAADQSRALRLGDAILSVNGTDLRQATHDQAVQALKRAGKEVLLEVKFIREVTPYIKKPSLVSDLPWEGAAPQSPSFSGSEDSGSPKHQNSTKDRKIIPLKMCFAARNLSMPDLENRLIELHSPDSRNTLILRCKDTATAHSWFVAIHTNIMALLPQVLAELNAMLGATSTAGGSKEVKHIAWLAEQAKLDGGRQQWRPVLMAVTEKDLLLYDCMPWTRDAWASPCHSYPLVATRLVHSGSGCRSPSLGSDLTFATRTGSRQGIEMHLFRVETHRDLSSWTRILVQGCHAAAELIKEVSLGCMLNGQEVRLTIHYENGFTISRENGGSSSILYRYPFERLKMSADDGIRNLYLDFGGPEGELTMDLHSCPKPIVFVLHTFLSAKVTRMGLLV
UniProt O60749: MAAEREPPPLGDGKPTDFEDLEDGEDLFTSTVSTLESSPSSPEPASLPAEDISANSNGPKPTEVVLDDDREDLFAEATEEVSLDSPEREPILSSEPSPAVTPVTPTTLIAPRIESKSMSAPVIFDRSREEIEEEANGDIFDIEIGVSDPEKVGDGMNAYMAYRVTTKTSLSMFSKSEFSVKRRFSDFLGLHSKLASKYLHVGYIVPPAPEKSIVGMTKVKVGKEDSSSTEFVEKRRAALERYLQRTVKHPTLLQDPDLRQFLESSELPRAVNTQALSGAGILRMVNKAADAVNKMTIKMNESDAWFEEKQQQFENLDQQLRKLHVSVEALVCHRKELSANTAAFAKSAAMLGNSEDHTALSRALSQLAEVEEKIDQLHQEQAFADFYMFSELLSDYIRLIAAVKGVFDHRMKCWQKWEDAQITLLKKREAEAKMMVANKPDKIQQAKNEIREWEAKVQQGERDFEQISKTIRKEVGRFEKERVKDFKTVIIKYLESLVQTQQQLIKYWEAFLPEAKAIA
UniProt Q96H20: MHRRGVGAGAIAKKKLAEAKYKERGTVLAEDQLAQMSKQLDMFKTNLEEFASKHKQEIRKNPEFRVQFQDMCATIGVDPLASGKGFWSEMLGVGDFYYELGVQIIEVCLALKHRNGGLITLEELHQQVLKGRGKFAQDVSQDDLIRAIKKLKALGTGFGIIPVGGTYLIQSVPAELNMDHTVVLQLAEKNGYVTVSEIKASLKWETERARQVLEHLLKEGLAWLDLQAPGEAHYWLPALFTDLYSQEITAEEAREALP
UniProt O60264, whole entry, looked up: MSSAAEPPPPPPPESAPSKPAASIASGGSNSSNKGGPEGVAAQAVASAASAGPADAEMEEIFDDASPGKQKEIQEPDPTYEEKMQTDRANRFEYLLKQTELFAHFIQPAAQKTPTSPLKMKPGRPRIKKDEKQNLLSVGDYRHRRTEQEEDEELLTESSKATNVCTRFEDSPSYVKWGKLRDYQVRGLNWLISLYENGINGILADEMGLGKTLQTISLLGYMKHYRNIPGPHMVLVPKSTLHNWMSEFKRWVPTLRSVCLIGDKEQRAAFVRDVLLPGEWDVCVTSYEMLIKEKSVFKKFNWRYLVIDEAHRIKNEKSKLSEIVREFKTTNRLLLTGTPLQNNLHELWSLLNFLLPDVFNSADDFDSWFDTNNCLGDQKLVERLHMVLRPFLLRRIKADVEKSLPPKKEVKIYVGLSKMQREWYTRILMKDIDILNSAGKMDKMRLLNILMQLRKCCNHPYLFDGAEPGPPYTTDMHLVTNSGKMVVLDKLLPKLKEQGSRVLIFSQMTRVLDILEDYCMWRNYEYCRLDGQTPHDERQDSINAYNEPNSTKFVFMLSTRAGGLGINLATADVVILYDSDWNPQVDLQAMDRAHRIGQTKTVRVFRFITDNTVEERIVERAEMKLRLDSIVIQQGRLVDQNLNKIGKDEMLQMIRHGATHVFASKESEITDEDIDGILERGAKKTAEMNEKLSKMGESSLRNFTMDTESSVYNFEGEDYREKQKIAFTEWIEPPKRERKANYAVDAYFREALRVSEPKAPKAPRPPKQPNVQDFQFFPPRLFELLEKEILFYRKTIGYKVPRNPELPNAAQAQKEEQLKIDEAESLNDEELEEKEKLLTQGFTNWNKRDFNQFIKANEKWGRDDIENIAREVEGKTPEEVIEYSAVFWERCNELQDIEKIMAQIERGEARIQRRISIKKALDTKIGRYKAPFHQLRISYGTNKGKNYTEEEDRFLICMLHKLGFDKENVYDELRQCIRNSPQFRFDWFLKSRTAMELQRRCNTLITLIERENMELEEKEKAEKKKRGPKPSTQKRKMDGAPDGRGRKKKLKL
UniProt Q969G3, whole entry, looked up: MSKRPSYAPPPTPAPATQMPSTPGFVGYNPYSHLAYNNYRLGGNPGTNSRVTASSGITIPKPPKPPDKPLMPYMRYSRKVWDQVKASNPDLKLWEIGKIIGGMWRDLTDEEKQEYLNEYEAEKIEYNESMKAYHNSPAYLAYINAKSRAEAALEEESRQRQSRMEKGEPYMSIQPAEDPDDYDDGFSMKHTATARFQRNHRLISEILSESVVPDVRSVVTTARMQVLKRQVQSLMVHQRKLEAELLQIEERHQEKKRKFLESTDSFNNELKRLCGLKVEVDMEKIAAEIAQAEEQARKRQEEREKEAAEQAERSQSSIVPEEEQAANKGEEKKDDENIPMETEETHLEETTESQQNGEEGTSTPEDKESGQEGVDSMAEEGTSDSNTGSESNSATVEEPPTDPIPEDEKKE
UniProt Q6GMV2: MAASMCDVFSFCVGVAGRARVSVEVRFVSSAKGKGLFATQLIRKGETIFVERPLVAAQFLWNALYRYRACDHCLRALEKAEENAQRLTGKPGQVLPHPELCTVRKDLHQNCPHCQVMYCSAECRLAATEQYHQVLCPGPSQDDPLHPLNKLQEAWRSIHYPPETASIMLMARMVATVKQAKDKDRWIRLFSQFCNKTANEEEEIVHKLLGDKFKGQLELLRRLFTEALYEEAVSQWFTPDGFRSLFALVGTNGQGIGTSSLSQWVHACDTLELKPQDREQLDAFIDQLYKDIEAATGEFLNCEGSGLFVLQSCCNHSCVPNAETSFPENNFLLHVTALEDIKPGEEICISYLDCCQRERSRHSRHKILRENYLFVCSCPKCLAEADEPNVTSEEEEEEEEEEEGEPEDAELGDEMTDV
UniProt P04179: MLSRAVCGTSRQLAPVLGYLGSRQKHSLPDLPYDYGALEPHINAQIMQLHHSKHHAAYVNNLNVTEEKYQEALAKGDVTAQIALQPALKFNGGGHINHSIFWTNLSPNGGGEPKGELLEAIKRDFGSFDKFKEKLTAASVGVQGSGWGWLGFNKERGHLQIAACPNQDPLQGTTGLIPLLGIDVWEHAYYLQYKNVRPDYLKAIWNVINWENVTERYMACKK
UniProt Q8WVK2: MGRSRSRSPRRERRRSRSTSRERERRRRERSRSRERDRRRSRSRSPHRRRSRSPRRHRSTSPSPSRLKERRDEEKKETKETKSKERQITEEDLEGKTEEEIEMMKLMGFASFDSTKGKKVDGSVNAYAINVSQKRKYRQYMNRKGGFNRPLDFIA
UniProt Q92922, whole entry, looked up: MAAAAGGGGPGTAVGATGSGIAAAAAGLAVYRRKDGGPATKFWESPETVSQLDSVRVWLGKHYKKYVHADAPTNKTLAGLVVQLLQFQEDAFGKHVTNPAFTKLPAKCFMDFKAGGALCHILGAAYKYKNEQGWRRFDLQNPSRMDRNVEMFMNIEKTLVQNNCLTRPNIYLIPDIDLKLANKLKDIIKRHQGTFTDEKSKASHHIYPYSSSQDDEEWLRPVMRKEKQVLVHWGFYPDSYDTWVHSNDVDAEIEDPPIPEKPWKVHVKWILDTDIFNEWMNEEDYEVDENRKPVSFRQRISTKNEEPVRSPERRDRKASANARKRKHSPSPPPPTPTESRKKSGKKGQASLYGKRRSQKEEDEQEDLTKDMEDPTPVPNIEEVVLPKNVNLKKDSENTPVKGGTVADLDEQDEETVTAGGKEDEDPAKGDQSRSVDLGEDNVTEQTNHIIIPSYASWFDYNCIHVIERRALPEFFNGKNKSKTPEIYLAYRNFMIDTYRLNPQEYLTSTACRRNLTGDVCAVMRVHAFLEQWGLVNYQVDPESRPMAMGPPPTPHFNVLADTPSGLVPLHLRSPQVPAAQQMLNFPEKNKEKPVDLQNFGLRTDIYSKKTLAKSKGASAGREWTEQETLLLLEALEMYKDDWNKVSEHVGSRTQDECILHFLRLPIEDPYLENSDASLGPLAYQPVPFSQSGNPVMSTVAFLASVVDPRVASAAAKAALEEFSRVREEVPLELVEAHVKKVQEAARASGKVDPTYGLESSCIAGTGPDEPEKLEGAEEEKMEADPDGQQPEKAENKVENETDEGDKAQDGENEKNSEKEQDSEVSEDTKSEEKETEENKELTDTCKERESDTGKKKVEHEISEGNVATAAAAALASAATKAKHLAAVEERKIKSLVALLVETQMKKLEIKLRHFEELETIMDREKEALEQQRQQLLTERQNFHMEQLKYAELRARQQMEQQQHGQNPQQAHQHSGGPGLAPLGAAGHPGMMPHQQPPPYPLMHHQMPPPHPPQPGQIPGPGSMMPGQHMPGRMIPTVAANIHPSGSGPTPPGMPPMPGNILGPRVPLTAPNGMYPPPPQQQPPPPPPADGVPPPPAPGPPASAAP
UniProt Q96EX1: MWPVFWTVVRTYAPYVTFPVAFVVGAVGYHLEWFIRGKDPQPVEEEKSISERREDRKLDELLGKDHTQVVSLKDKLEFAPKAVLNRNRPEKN

Experiments:
Assay in all cases: log2 fold change, soluble protein after heating vs DMSO (PISA); higher = thermal stabilisation; K562 lysate, 10 uM; active = over 0.2 and 3.5 SD of the protein, either way, in both replicates (recomputed)
ibrutinib = compound: C=CC(=O)N1CCC[C@@H](n2nc(-c3ccc(Oc4ccccc4)cc3)c3c(N)ncnc32)C1 [ibrutinib]
In short: (§1)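 Pellets of K562 cells were dounce-homogenised in PBS pH 7.4 with 1 mM MgCl2, and the crude extract was held at 1 mg/mL protein for a 30 min treatment with 10 μM compound. Aliquots were heated for 3 min over 48°C-58°C and pooled before NP-40 was added to 0.5% at 4°C. The supernatant from 21,000xg for 90 min was quantified by TMTpro 16plex LC-MS/MS with channel sums equalised. Values are reported from duplicates as log-two fold change in thermal stability relative to solvent controls.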

[1] = compound: CC(=O)c1cnc2ccc(-c3cc(Cl)c(O)c(Cl)c3)nc2c1N[C@H]1CC[C@H](CN(C)C)CC1
In short: as §1

ralimetinib = compound: CC(C)(C)Cn1c(N)nc2ccc(-c3[nH]c(C(C)(C)C)nc3-c3ccc(F)cc3)nc21 [ralimetinib]
In short: as §1

[2] = compound: CC(C)(O)CC(=O)NCCn1ccc2ncnc(Nc3ccc(Oc4cccc(C(F)(F)F)c4)c(Cl)c3)c21
In short: as §1

[3] = compound: CC(C)C1=C2N=C(C=C(N2N=C1)NCC3=CC=CC=C3)NCCCCCCN
In short: as §1

[4] = compound: CC1=C(C(CC(=O)N1)C2=CC=C(C=C2)C(F)(F)F)C(=O)NC3=C(C=C4C(=C3)C=NN4)F
In short: as §1

[5] = compound: CC1=C(C2=C(C=C1)C(=O)C3=CC=CC=C3N2CCCN)C
In short: as §1

[6] = compound: CC1=C(C=C(C=C1)NC(=O)C2=CC(=CC=C2)C(C)(C)C#N)NC3=CC4=C(C=C3)N=CN(C4=O)C
In short: as §1

[7] = compound: CC1=C(C=C(C=C1)NC(=O)C2=CC(=CC=C2)N(C)C)NC(=O)C3=CC=C(C=C3)O
In short: as §1

[8] = compound: CC1=CC=C(C=C1)SC2=C3C=C(SC3=CN=C2)C(=O)N
In short: as §1

Measured: log2 fold change

SNRPB2 (UniProt P08579)
inactive: ibrutinib 0.016 | [1] -0.023 | ralimetinib -0.046 | [2] 0.003 | [3] 0.007 | [4] -0.029 | [5] -0.016 | [6] 0.002 | [7] -0.027 | [8] -0.021

SPAG9 (UniProt O60271)
inactive: ibrutinib 0.008 | [1] -0.004 | ralimetinib -0.007 | [2] -0.029 | [3] -0.022 | [4] -0.016 | [5] -0.027 | [6] 0.023 | [7] 0.016 | [8] -0.015

SORBS1 isoform 8 (UniProt Q9BX66)
inactive: ibrutinib 0.04 | [1] -0.036 | ralimetinib -0.007 | [2] -0.034 | [3] -0.004 | [4] 0.015 | [5] -0.011 | [6] 0.028 | [7] -0.009 | [8] -0.006

SMU1 (UniProt Q2TAY7)
inactive: ibrutinib 0.009 | [1] 0.004 | ralimetinib -0.008 | [2] 0.011 | [3] 0.006 | [4] 0 | [5] 0.009 | [6] 0.016 | [7] 0.022 | [8] 0.008

SMN1 (UniProt Q16637)
inactive: ibrutinib -0.085 | [1] -0.028 | ralimetinib 0.01 | [2] -0.01 | [3] 0.002 | [4] 0.001 | [5] -0.018 | [6] 0.018 | [7] 0.137 | [8] -0.045

SNX3 (UniProt O60493)
inactive: ibrutinib 0.018 | [1] 0.062 | ralimetinib 0.02 | [2] 0.003 | [3] -0.001 | [4] -0.032 | [5] 0.038 | [6] -0.04 | [7] -0.02 | [8] 0.041

SMIM8 (UniProt Q96KF7)
inactive: ibrutinib 0.073 | [1] -0.02 | ralimetinib 0.059 | [2] -0.136 | [3] -0.095 | [4] -0.025 | [5] -0.128 | [6] 0.038 | [7] 0.053 | [8] -0.006

SOD1 (UniProt P00441)
inactive: ibrutinib 0.06 | [1] 0.004 | ralimetinib 0.049 | [2] 0.01 | [3] 0.025 | [4] -0.022 | [5] 0.152 | [6] -0.176 | [7] -0.039 | [8] 0.047

SMTN isoform 6 (UniProt P53814)
inactive: ibrutinib -0.03 | [1] -0.072 | ralimetinib -0.02 | [2] -0.004 | [3] -0.009 | [4] 0.074 | [5] -0.013 | [6] 0.054 | [7] 0.05 | [8] 0.135

SMARCAL1 (UniProt Q9NZC9)
inactive: ibrutinib 0.071 | [1] -0.147 | ralimetinib 0.038 | [2] -0.023 | [3] -0.032 | [4] 0.015 | [5] -0.151 | [6] -0.044 | [7] -0.022 | [8] -0.191

SNRPA1 (UniProt P09661)
inactive: ibrutinib 0.023 | [1] -0.003 | ralimetinib -0.001 | [2] 0.017 | [3] -0.013 | [4] -0.002 | [5] -0.017 | [6] -0.018 | [7] -0.011 | [8] 0.011

SNX11 (UniProt Q9Y5W9)
inactive: ibrutinib -0.028 | [1] 0.009 | ralimetinib 0.022 | [2] -0.008 | [3] -0.013 | [4] 0.021 | [5] -0.101 | [6] -0.001 | [7] -0.004 | [8] -0.034

SNCG (UniProt O76070)
inactive: ibrutinib -0.012 | [1] -0.015 | ralimetinib -0.002 | [2] 0.027 | [3] 0.02 | [4] -0.051 | [5] -0.027 | [6] 0.033 | [7] -0.024 | [8] -0.034

2 successive records out of the list so far, quoted:
SMTN isoform 6 (UniProt P53814)
inactive: ibrutinib -0.03 | [1] -0.072 | ralimetinib -0.02 | [2] -0.004 | [3] -0.009 | [4] 0.074 | [5] -0.013 | [6] 0.054 | [7] 0.05 | [8] 0.135

SMARCAL1 (UniProt Q9NZC9)
inactive: ibrutinib 0.071 | [1] -0.147 | ralimetinib 0.038 | [2] -0.023 | [3] -0.032 | [4] 0.015 | [5] -0.151 | [6] -0.044 | [7] -0.022 | [8] -0.191

Later entries.

SNTB2 (UniProt Q13425)
inactive: ibrutinib 0.004 | [1] -0.017 | ralimetinib 0.011 | [2] -0.05 | [3] -0.122 | [4] 0.052 | [5] -0.074 | [6] -0.113 | [7] 0 | [8] 0.033

SNX2 (UniProt O60749)
inactive: ibrutinib 0.037 | [1] 0.001 | ralimetinib 0.007 | [2] 0.048 | [3] -0.008 | [4] -0.008 | [5] 0.02 | [6] -0.036 | [7] 0.006 | [8] -0.013

SNF8 (UniProt Q96H20)
inactive: ibrutinib 0.023 | [1] -0.001 | ralimetinib 0 | [2] 0.016 | [3] 0.038 | [4] -0.004 | [5] 0.011 | [6] -0.016 | [7] 0 | [8] 0.006

SMARCA5 (UniProt O60264)
inactive: ibrutinib 0.002 | [1] 0.019 | ralimetinib 0.038 | [2] 0.003 | [3] -0.036 | [4] 0.017 | [5] -0.113 | [6] -0.057 | [7] 0.03 | [8] 0.013

SMG9 (UniProt Q9H0W8)
inactive: ibrutinib 0.026 | [1] -0.028 | ralimetinib 0.008 | [2] 0.018 | [3] -0.046 | [4] 0.03 | [5] -0.052 | [6] 0.005 | [7] 0.008 | [8] 0.043

SMARCE1 (UniProt Q969G3)
inactive: ibrutinib -0.016 | [1] -0.038 | ralimetinib 0.018 | [2] -0.009 | [3] 0.029 | [4] -0.021 | [5] 0.007 | [6] -0.072 | [7] 0.003 | [8] -0.004

SMYD5 (UniProt Q6GMV2)
inactive: ibrutinib 0.055 | [1] 0.066 | ralimetinib -0.042 | [2] 0.004 | [3] 0.035 | [4] -0.022 | [5] 0.029 | [6] 0.013 | [7] -0.044 | [8] -0.033

SOD2 (UniProt P04179)
inactive: ibrutinib 0.045 | [1] -0.03 | ralimetinib 0.009 | [2] -0.047 | [3] -0.004 | [4] -0.027 | [5] -0.015 | [6] -0.046 | [7] -0.029 | [8] -0.021

SNRNP27 (UniProt Q8WVK2)
inactive: ibrutinib 0.001 | [1] 0.008 | ralimetinib 0.03 | [2] -0.054 | [3] 0.041 | [4] 0.006 | [5] -0.024 | [6] 0.039 | [7] -0.018 | [8] 0.042

SMARCC1 (UniProt Q92922)
inactive: ibrutinib 0.001 | [1] -0.011 | ralimetinib 0.007 | [2] -0.02 | [3] 0.022 | [4] 0.013 | [5] -0.046 | [6] -0.017 | [7] 0.007 | [8] -0.009

SMG5 (UniProt Q9UPR3)
inactive: ibrutinib -0.041 | [1] 0.048 | ralimetinib 0.021 | [2] -0.032 | [3] -0.037 | [4] 0.071 | [5] 0.015 | [6] -0.117 | [7] 0.057 | [8] 0.024

SMYD3 (UniProt Q9H7B4)
inactive: ibrutinib -0.009 | [1] -0.002 | ralimetinib 0.032 | [2] -0.012 | [3] 0.034 | [4] -0.037 | [5] -0.028 | [6] 0.038 | [7] 0.036 | [8] -0.027

SOS1 (UniProt Q07889)
inactive: ibrutinib 0.044 | [1] -0.004 | ralimetinib 0 | [2] -0.082 | [3] 0.012 | [4] 0.032 | [5] -0.026 | [6] -0.038 | [7] 0.118 | [8] 0.036

SMIM12 (UniProt Q96EX1)
inactive: ibrutinib 0.04 | [1] 0.013 | ralimetinib 0.021 | [2] -0.049 | [3] -0.024 | [4] -0.008 | [5] -0.002 | [6] 0.038 | [7] -0.064 | [8] -0.011
